Data taken from PMC6706699 (Developmental Cell, 2019).
Results are given in words; binding and its absence hold for the method and conditions named. In cells and extracts the contact can be indirect. A yes stands for co-enrichment or nearness to the bait. Other partners may have been found. Tags and fused reporters may be left off the sequences shown.

Sequences of proteins named here, by UniProt entry; tags and fusion partners are left off.
UniProt O08539: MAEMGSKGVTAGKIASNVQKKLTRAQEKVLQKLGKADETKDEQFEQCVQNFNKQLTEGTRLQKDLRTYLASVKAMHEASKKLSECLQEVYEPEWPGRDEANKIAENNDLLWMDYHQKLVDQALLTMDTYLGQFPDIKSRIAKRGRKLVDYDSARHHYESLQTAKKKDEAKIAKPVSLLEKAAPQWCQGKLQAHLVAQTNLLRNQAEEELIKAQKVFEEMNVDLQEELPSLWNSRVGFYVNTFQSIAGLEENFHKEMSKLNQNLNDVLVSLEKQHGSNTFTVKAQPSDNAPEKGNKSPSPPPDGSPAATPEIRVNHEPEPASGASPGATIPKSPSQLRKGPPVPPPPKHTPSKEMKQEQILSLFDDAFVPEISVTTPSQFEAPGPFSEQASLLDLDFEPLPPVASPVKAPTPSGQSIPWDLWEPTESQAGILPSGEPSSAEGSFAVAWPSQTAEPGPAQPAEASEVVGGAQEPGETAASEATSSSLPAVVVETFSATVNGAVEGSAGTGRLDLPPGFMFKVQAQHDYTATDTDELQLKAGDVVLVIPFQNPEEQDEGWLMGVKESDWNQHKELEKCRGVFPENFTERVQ
UniProt Q9Y5X1: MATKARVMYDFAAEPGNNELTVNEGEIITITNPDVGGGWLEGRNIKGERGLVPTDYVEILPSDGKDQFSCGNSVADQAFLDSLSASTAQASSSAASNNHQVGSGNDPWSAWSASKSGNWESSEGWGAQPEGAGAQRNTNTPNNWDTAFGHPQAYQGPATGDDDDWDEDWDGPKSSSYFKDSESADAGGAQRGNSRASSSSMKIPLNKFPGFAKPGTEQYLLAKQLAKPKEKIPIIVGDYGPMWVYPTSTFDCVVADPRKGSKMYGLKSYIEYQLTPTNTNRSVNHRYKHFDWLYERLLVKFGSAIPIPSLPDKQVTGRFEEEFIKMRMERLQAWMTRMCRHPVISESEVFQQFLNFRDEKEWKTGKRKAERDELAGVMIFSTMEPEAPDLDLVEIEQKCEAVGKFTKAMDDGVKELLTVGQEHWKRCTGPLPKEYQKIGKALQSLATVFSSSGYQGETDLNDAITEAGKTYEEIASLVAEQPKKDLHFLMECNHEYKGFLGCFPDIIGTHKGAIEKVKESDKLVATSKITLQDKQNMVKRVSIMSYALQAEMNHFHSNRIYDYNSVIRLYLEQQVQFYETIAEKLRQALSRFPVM

T1: GST-NECAP1 PHear (1-133) R90A (UniProt Q8NC96)
T1 sequence: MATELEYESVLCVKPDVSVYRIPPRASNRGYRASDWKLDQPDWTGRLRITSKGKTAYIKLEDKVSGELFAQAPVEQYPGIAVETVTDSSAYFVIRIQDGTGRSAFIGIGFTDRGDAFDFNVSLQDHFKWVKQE

T2: GST-NECAP1 PHear (residues 1-133) (UniProt Q8NC96)
T2 sequence: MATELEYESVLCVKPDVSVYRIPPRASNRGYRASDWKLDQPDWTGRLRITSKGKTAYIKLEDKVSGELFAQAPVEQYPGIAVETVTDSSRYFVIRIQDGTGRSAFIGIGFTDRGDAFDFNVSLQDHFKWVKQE


Experiments:
[1] = molecular target: T1, GST-NECAP1 PHear (1-133) R90A; assay: affinity purification with mass spectrometry; GST-NECAP1 PHear (1-133) WT, R90A, R102A or R90A/R102A on GSH beads, mouse brain lysate, 1 h at 4°C in buffer T; only the target purified
[2] = molecular target: T2, GST-NECAP1 PHear (residues 1-133); assay: as above
[3] = molecular target: T2, GST-NECAP1 PHear (residues 1-133); assay: affinity purification with mass spectrometry; GST-NECAP1 1–133 on GSH beads, cytosolic extracts of HeLa, RPE and HepG2 cells, buffer T; only the target purified

Row | Molecule | binding [1] | binding [2] | binding [3]
1 | Amphiphysin2 / Bin1, endogenous in mouse brain lysate (from UniProt O08539 1-588) | binds | binds | –
2 | Amphiphysin1, endogenous in mouse brain lysate (protein, UniProt Q7TQF7 1-686) MADIKTGIFAKNVQKRLNRAQEKVLQKLGKADETKDEQFEEYVQNFKRQEAEGTRLQRELRGYLAAIKGMQEASMKLTESLHEVYEPDWYGREDVKMVGEKCDVLWEDFHQKLVDGSLLTLDTYLGQFPDIKNRIAKRSRKLVDYDSARHHLEALQSSKRKDESRISKAEEEFQKAQKVFEEFNVDLQEELPSLWSSRVGFYVNTFKNVSSLEAKFHKEIAVLCHKLYEVMTKLGDQHADKAFSIQGAPSDSGPLRIAKTPSPPEEPSPLPSPTASPNHTLAPASPAPVRPRSPSQTRKGPPVPPLPKVTPTKELKQENIINFFEDNFVPEINVTTPSQNEVLEVKKEETLLDLDFDPFKPDVAPAGSAAATHSPMSQTLPWDLWTTSTDLVQPASGGSFNDFTQAQDTSLFTMQTDQNMAETEQALPTEPQAEEPPATAAAPTAGLDLGLEMEEPKEEAVIPPATDTGETVETAVPTEGAPVEEAEAEKAALPAGEGGSPEGAKIDGESTELAISESPQPVEPEAGAPQVIPSVVIEPASNHEGEGEHQETATGTEPREAAEDVAAQGSAGEKQEVATEPTPLDSQATLPASAGAVDASLSAGDATQELPPGFLYKVETLHDFEAANSDELNLQRGDVVLVVPSDSEADQDAGWLVGVKESDWLQYRDLATYKGLFPENFTRRLE | binds | binds | –
3 | Bin2, endogenous in mouse brain lysate (protein, UniProt D3Z6Q9 1-489) MAEGKAGGAAGLFAKQMQKKFSRAQEKVLQKLGKTVETKDERFEQSASNFYQQQAEGHKLYKDLKNFLSAVKVMHESSKRVSETLQEVYSSDWDGHEDLKAIVGNNDLLWEDYEEKLADQALRTMENYVSQFSEIKERIAKRGRKLVDYDSARHHLEAVQNAKKKDDAKMAKAEEDFSKAQIVFEDLNQELLEELPILYNSRIGCYVTVFQNISNLRDVFYREMSKLNHNLYEVMSKLEKQHSNKVFVVKGLSSSSRRSLVISPPVQSCAASSPVSPVSPVSPVTSPTSPSATSEPESVSATGEELTSEAGGEDSCESQESLKDEEADEAQSETSSSLPACNGPTPAPASPAAEVGSQEEALSSSAQSPGRGQTGKDTPSPGDVVLRARASSEGAEQSKRAASIQRTSAPPSRPPPPRASGSGSCNAPGSPEGSSQLCSPRASPDASSNPEPAETREKEGAGSSGPEEPRAVSTKSATQASGGLVGLFL | binds | binds | –

Results, then the molecule that gave them:

Row | binding [1] | binding [2] | binding [3] | Molecule
4 | – | – | binds | SNX9, endogenous in human non-neuronal cells (from UniProt Q9Y5X1 1-595)
5 | – | – | binds | CALM, endogenous in human non-neuronal cells (protein, UniProt Q13492 1-652) MSGQSLTDRITAAQHSVTGSAVSKTVCKATTHEIMGPKKKHLDYLIQCTNEMNVNIPQLADSLFERTTNSSWVVVFKSLITTHHLMVYGNERFIQYLASRNTLFNLSNFLDKSGLQGYDMSTFIRRYSRYLNEKAVSYRQVAFDFTKVKRGADGVMRTMNTEKLLKTVPIIQNQMDALLDFNVNSNELTNGVINAAFMLLFKDAIRLFAAYNEGIINLLEKYFDMKKNQCKEGLDIYKKFLTRMTRISEFLKVAEQVGIDRGDIPDLSQAPSSLLDALEQHLASLEGKKIKDSTAASRATTLSNAVSSLASTGLSLTKVDEREKQAALEEEQARLKALKEQRLKELAKKPHTSLTTAASPVSTSAGGIMTAPAIDIFSTPSSSNSTSKLPNDLLDLQQPTFHPSVHPMSTASQVASTWGDPFSATVDAVDDAIPSLNPFLTKSSGDVHLSISSDVSTFTTRTPTHEMFVGFTPSPVAQPHPSAGLNVDFESVFGNKSTNVIVDSGGFDELGGLLKPTVASQNQNLPVAKLPPSKLVSDDLDSSLANLVGNLGIGNGTTKNDVNWSQPGEKKLTGGSNWQPKVAPTTAWNAATMAPPVMAYPATTPTGMIGYGIPPQMGSVPVMTQPTLIYSQPVMRPPNPFGPVSGAQIQFM
